This passage reports binding results from publication doi:10.1101/2020.02.05.923433 (bioRxiv, 2020).

By UniProt entry, the sequences of proteins in these tests, tags left out. Residues count along the entry.
UniProt O75628, residues 76-251: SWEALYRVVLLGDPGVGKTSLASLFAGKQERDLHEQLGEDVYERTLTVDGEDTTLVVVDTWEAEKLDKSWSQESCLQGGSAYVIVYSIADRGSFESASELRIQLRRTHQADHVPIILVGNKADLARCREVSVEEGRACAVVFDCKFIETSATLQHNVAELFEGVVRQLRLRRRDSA

Results are given in words; binding and its absence hold for the method and conditions named. A result given as binding can be weak or reduced; the word gives no strength. For some assays here: Sequences can lack the tags named with a protein.

The target in experiment [1] is T1, GST-tagged, wild-type GEM (residues 62-203) (human) (UniProt P55040).
T1 sequence: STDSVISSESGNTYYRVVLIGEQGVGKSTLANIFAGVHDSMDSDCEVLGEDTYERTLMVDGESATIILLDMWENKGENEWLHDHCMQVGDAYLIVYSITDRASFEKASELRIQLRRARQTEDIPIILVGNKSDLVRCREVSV
The experiment can be described thus: pull-down.

In experiment [2] the target is GST-tagged, wild-type REM1 (residues 76-251) (human) (UniProt O75628). The experiment can be described thus: pull-down.

Take “purified RASSF1 RA domain (from UniProt Q9NS23-2) (domain or fragment)”: the binding entry in experiment [1] and in experiment [2] was “binds” each time.
